Some of the results follow.
target: T1, OsSMF1 (Oryza sativa, UniProt Q6ZLB0 1-436); assay: protein-binding microarray (RPBM); PBS, 2% BSA, 51.3 ng/ul salmon testes DNA, 50 uM zinc acetate, 200 nM TF, 25 C, 1 h; high values mean tight binding; conditions: protein: recombinant; tags: N-terminal polyhistidine and DsRed monomer fusion (pET32a); chain copies: 2; label: CyDye5-dUTP incorporated in the synthesized complementary strand; 3' TTTTT single-stranded linker to array surface; dsDNA, one strand shown
T1 sequence: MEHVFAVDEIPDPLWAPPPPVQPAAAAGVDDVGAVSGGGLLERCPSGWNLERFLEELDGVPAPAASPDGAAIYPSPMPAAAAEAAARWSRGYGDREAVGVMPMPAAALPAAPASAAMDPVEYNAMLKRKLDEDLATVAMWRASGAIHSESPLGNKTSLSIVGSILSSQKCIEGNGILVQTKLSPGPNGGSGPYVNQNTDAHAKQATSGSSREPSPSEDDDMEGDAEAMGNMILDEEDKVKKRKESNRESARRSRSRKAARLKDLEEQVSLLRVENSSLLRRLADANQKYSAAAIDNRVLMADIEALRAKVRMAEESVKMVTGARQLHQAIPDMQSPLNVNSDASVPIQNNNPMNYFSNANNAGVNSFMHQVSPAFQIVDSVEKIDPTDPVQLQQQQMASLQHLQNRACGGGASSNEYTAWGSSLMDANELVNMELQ
Outline: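 Transcription factors were each fused at the N-terminus to a polyhistidine tag plus DsRed and expressed in E. coli BL21-CodonPlus before Ni–NTA purification. Binding to a double-stranded custom Agilent array was carried out with 200 nM protein at 25 °C for 1 h in PBS, 2% BSA, salmon testes DNA and 50 µM zinc acetate. The binding signal is per-feature fluorescence intensity, in arbitrary units, on an Axon 4000B scanner.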

Row | Sequence | binding signal
1 | TGTATTTGCTACCGTTTTCCAATATGTACCGTCATGTTTCCGGAGTCACCTAGTGCAG | 3920 fluorescence intensity (a.u.)
2 | GCATGCCAAAATATGCTACGACGATGATGACGACGATTCCCGGAGTCACCTAGTGCAG | 4530 fluorescence intensity (a.u.)
3 | AAAGGGGATAGTGCAGAAGTTACCTGGTCATCTTATGGCTCGGAGTCACCTAGTGCAG | 3540 fluorescence intensity (a.u.)
4 | ACGTTCTACGTGTCAAGAAGAAATGGTTCTCAACCCTCTCCGGAGTCACCTAGTGCAG | 4320 fluorescence intensity (a.u.)
5 | TTCCACTGACATCTGTCGCCACGAAAACGTGGCCCCTCCGCGGAGTCACCTAGTGCAG | 4070 fluorescence intensity (a.u.)
6 | ATGGTTCTAGTATTACGTGGCGCCTATGTGGCAGTGGCTCCGGAGTCACCTAGTGCAG | 27400 fluorescence intensity (a.u.)
7 | ATCTTCAAATCAATAGAATCATCATAATGATGATCTAGCTCGGAGTCACCTAGTGCAG | 3530 fluorescence intensity (a.u.)
8 | GTTTTGCGTACGTGGCTGCACTTGAGTCGTCCGATGGGAACGGAGTCACCTAGTGCAG | 6960 fluorescence intensity (a.u.)
9 | CCAGACACCAAGTGACCGAGAGATAAGGCTCATACAGGCACGGAGTCACCTAGTGCAG | 16100 fluorescence intensity (a.u.)
10 | AGAGTGAGAGTTTTACAGTCAAGTAATGCGTGGCAAGCCACGGAGTCACCTAGTGCAG | 6540 fluorescence intensity (a.u.)
11 | TGATACACACGCACGCACGCACGCACACGTACACACACAACGGAGTCACCTAGTGCAG | 3880 fluorescence intensity (a.u.)
12 | AAAAGTCTTTTGCTTCGCTGAAAGCACCATTCTTCTCCAACGGAGTCACCTAGTGCAG | 35600 fluorescence intensity (a.u.)
13 | AAGCTTCTAGGAGTATTGCGTACTACTCCGTAGTAGAGTGCGGAGTCACCTAGTGCAG | 3510 fluorescence intensity (a.u.)
14 | ATTTGCAGCTCGACCTTTGAAGTCGTTGCTACGTGGAGTACGGAGTCACCTAGTGCAG | 5270 fluorescence intensity (a.u.)
15 | TCCCAAATTCCGATTTCTCACTGATGGTACCCTCATTTGTCGGAGTCACCTAGTGCAG | 3200 fluorescence intensity (a.u.)
16 | TCAACAACCATCTTCACGTGCTATAGGTTAGCTGTCAGATCGGAGTCACCTAGTGCAG | 3520 fluorescence intensity (a.u.)
17 | GTCGTTGTGTGCGTGCATGGCACTGTTGATGTCGAGTATACGGAGTCACCTAGTGCAG | 3200 fluorescence intensity (a.u.)
18 | TAATGCTTCATGCATGTGTTCAAAGATTCGATGTGATGTTCGGAGTCACCTAGTGCAG | 23900 fluorescence intensity (a.u.)
19 | GTATCAGGATTTCAATCCTGGTGGGTGGAGTCATGCATCTCGGAGTCACCTAGTGCAG | 3640 fluorescence intensity (a.u.)
20 | TTTGCTAGAAGCTCCTTAGAAGTTATTATGACTTGGGACGCGGAGTCACCTAGTGCAG | 3230 fluorescence intensity (a.u.)
21 | CGGCAGGTACACCGTGTACAACTACGCCGGCGTGCTGTGGCGGAGTCACCTAGTGCAG | 3930 fluorescence intensity (a.u.)
22 | GCCCGCAAACTCGGGGTTTCCCCGTCACGCCAGCCGCCCACGGAGTCACCTAGTGCAG | 4970 fluorescence intensity (a.u.)
23 | GTTAACACCACAATGAATTATCAAATCCCAAATGGTACTGCGGAGTCACCTAGTGCAG | 4210 fluorescence intensity (a.u.)
24 | GTTCTAGCGTGGTCACGACGTGACGTTCCCACGTTCGTCTCGGAGTCACCTAGTGCAG | 7140 fluorescence intensity (a.u.)
25 | GCGTGCCGGGGTTGGGGCTGGCTGTACATACAAATCTTACCGGAGTCACCTAGTGCAG | 3790 fluorescence intensity (a.u.)
26 | GGCAAAACACGGCACGCCACGCCAATACGTGCGCGCGTCCCGGAGTCACCTAGTGCAG | 3850 fluorescence intensity (a.u.)
27 | GGACTAAAGATGGCTCAACCGGCCACGTGGTTGAGCGATCCGGAGTCACCTAGTGCAG | 8320 fluorescence intensity (a.u.)

Copied from above: entries 20 to 21
Row | Sequence | binding signal
20 | TTTGCTAGAAGCTCCTTAGAAGTTATTATGACTTGGGACGCGGAGTCACCTAGTGCAG | 3230 fluorescence intensity (a.u.)
21 | CGGCAGGTACACCGTGTACAACTACGCCGGCGTGCTGTGGCGGAGTCACCTAGTGCAG | 3930 fluorescence intensity (a.u.)

Continued.

Row | Sequence | binding signal
28 | AAAGTAGTTTCTGCACGTAAATCGGACGCTGACGTCAGCGCGGAGTCACCTAGTGCAG | 36600 fluorescence intensity (a.u.)
29 | CTGACAGCAAAAGGCCACACTCCTCACAAATCTCGTGCGCCGGAGTCACCTAGTGCAG | 3830 fluorescence intensity (a.u.)
30 | TGTTCCCCTGCTGCATGCATGCATCGCCCCGCCCTGACCACGGAGTCACCTAGTGCAG | 15700 fluorescence intensity (a.u.)
31 | ATTTGTTGGGCTCTGTGGTTGAGTAGGAATGATATGATTTCGGAGTCACCTAGTGCAG | 3390 fluorescence intensity (a.u.)
32 | TTAAGGGCAAGTTTTACAGTGGATGTGAATGCCACATCTACGGAGTCACCTAGTGCAG | 3220 fluorescence intensity (a.u.)
33 | TGACCAGATCAGCGACCACCCCATGGTGATGCACTCGTCACGGAGTCACCTAGTGCAG | 3200 fluorescence intensity (a.u.)
34 | ATATATACTCCAAGCTCGGTGAGCCAGCATCACCACCAACCGGAGTCACCTAGTGCAG | 3220 fluorescence intensity (a.u.)
35 | GCAACCGGTGAATCCGAAGCGAGGAAGGAGAGATGGCGAGCGGAGTCACCTAGTGCAG | 6720 fluorescence intensity (a.u.)
36 | ACGACGACGACGACGACGCAACCCCGCGGCGCGCGCCGGCCGGAGTCACCTAGTGCAG | 3160 fluorescence intensity (a.u.)
37 | TTCACTTAAACGGCGTCATCGTCCCATGTTATACTATCACCGGAGTCACCTAGTGCAG | 3620 fluorescence intensity (a.u.)
38 | AGTAAAATCAATCTATATATGAAGTATGCCTAGAGTATTGCGGAGTCACCTAGTGCAG | 3300 fluorescence intensity (a.u.)
39 | TGGCGTGGACTTCAGGTGTCATCGTCTCTCTCTTCTGTCCCGGAGTCACCTAGTGCAG | 3900 fluorescence intensity (a.u.)
40 | CATATCGCGAACAAATATATGTAATAGTGTGAATGACAGGCGGAGTCACCTAGTGCAG | 3410 fluorescence intensity (a.u.)
41 | CGGCAGGATGACGTGGAGTGTGACACGCGCGCCACGTAGGCGGAGTCACCTAGTGCAG | 21000 fluorescence intensity (a.u.)
42 | CATGTAACTCGCATATTCCCTGTCCTTAGCTGAGTCAACACGGAGTCACCTAGTGCAG | 6490 fluorescence intensity (a.u.)
43 | CGTGTGTAACTTTGGAACCTGCCACGGGAGAGCGAATTCCCGGAGTCACCTAGTGCAG | 25500 fluorescence intensity (a.u.)
44 | TAAGTTGTCAGACGTGGCAAAACTATCTTTATTCTTATCCCGGAGTCACCTAGTGCAG | 11500 fluorescence intensity (a.u.)
45 | GGTACTGACATTAGCAGCAGTTACATCCATTATCCCTGTGCGGAGTCACCTAGTGCAG | 3260 fluorescence intensity (a.u.)
46 | TAAGCTTTCTATAAAAGATCCATGTCAGCATATTTTCCTACGGAGTCACCTAGTGCAG | 7260 fluorescence intensity (a.u.)
47 | CGGCGAGCATTGTTGACGCGTTTTCGCCATGCGTGCAGTTCGGAGTCACCTAGTGCAG | 3590 fluorescence intensity (a.u.)
48 | CTGGGAGGGAGGGGAGGGAGCGCCGCCTTTGCCACTATCGCGGAGTCACCTAGTGCAG | 4880 fluorescence intensity (a.u.)
49 | CATCCAGTGTAGTAGTATACTAGTATGAGTAGGCTTGGTACGGAGTCACCTAGTGCAG | 3690 fluorescence intensity (a.u.)
50 | CTTTCCCTTGCTCGTGTCGCCATGTAGGCTGTTGAGTTGGCGGAGTCACCTAGTGCAG | 3150 fluorescence intensity (a.u.)
51 | CCACCCTCTCACAGCACAGCAATTGCATAGCTTTCCAATTCGGAGTCACCTAGTGCAG | 25000 fluorescence intensity (a.u.)
52 | AATCATGCAATAAAATAAACTTCGTTTTGCGTGGCAGGAGCGGAGTCACCTAGTGCAG | 4630 fluorescence intensity (a.u.)
53 | TAGCATTCGCAACGTGTATACTCAACTGTCAACTTTGTGGCGGAGTCACCTAGTGCAG | 3680 fluorescence intensity (a.u.)
54 | ATCTAGCATGGCCATCTTGCGGTGGCAAGCCGCTGCCGGACGGAGTCACCTAGTGCAG | 3390 fluorescence intensity (a.u.)
